The text below walks through data of PubChem BioAssay AID1918954 (Molecular Pharmacology Branch, DTP, NCI, 2023).

In general, viability, T/C refers to the ratio of treated to control.

Several values for one entry are separate records, joined by “and”; a condition that tells them apart may be missing. Equal entries are not always repeated. Further values from the same series stand in other lists.

For the test, the system named is MDA-MB-468 complex spheroids with HUVEC/MSC, viability. As to the kind of experiment: Anticancer human tumor MDA-MB-468 cell line growth inhibition.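 Further: spheroids exposed to agents for seven days; 100% = DMSO vehicle control viability.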 As to conditions: compound 10 µM; active compounds read low. From the text:
Multicellular complex tumor spheroid response to LSD1 Inhibitor Iadademstat in combination with a variety of drugs and investigational agents in selected tumor cell lines
The current study was undertaken to assess response to LSD1 inhibitors in combination with standard-of-care drugs and investigational agents in solid tumor complex spheroid models as well as in the K-562 leukemia. Complex spheroids include a stromal component modeled by human endothelial cells (HUVEC) and fibroblasts modeled by human mesenchymal stem cells (MSCs). The concentration ranges selected for each drug and investigational agent were based upon clinically achievable concentrations if the clinical Cmax of the agent was known.
Compounds. The drugs and investigational agents used in this study are listed on Table 1. All of the agents used, including staurosporine (NSC755774) and gemcitabine (NSC613327), were obtained from the Developmental Therapeutics Program, NCI. FDA-approved anticancer drugs are available from the NCI at http://dtp.nci.nih.gov/branches/dscb/oncology_drugset_explanation.html. Drugs and investigational agents were >95% pure by proton nuclear magnetic resonance (NMR) and liquid chromatography/mass spectrometry (LC/MS). […] If the clinical Cmax for an agent had not been determined, the highest concentration tested was 10 microM. […]

As for `NC1CCC(NC2CC2c2ccccc2)CC1` (stereo unspecified), the viability, T/C was 87.9% and 72.4%.
